Measured values reported in PubChem BioAssay AID2283304 (EPA ToxCast).
This list was built around the results that the source calls inconclusive (neither active nor inactive); the mix of calls is not that of the screen. A potency beside an inconclusive call is a rough fit, not a confirmed value. Activity calls are given as the source filed them. How the source made its calls: active means hit-call score of the fitted dose curve at least 0.9, where 1 is the maximum; inconclusive means response in the unintended direction; inactive means score below 0.9.

Chains of the proteins cited; added tags and fusions are not shown. Lines headed by an entry give the natural chain unless they say otherwise; changes in a name come on top.
UniProt Q62805: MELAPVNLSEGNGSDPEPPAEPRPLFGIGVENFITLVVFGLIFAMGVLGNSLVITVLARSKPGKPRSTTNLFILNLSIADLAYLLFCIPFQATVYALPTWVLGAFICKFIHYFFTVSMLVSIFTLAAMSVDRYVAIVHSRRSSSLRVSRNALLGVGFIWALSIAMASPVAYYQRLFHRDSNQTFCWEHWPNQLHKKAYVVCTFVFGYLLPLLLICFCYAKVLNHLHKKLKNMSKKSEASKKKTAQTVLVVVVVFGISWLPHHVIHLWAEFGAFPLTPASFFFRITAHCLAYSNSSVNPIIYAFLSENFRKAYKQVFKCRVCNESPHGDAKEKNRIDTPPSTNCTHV

The molecules below were run against rat Galanin Receptor, Galr1 (gene 50577) (UniProt Q62805) (assay: NVS_GPCR_rGalanin: NovaScreen (NVS) G Protein-Coupled Receptor Assay for rat Galanin Receptor).
Protocol: NVS_GPCR_rGalanin is a biochemical, single-readout assay that uses extracted gene-proteins from Rat brain membranes in a tissue-based cell-free assay. Measurements were taken 2 hours after chemical dosing in a 96-well plate.NVS_GPCR_rGalanin is one of one assay component(s) measured or calculated from the NVS_GPCR_rGalanin assay. It is designed to make measurements of radioligand binding, a form of binding reporter, as detected with scintillation counting signals by Filter-based radiodetection technology.Data from the assay component NVS_GPCR_rGalanin was analyzed into 1 assay endpoint. This assay endpoint, NVS_GPCR_rGalanin, was analyzed in the positive analysis fitting direction relative to DMSO as the negative control and baseline of activity. Using a type of binding reporter, loss-of-signal activity can be used to understand changes in the binding as they relate to the gene Galr1. Furthermore, this assay endpoint can be referred to as a primary readout, because the performed assay has only produced 1 assay endpoint. To generalize the intended target to other relatable targets, this assay endpoint is annotated to the gpcr intended target family, where the subfamily is rhodopsin-like receptor.
Binding assays used specific radioligands (tritiated, iodinated) with non-radioactive competitive displacement ligands in agonist or antagonist protocols (as indicated) and various reference compounds and inhibitors to titrate specific binding to receptors and transporters. Most enzyme assays (CYPs, kinases, phosphatases, proteases, HDACs) used recombinant protein and specific substrates (fluorescence mostly, some colorimetric and radioactive) and inhibitors, followed by a biochemical separation of substrate and product. All assays for the biochemical HTS were initially run in duplicate at a single concentration (10 uM for CYP450 assays and 25 uM for all others). Assay-chemical combinations meeting a pre-defined threshold (e.g., 30% inhibition and other criteria defined below) were then run in singleton concentration-response format with maximum concentration of 20 uM for CYPs and 50 uM for all others. Each assay was run with positive and negative controls, and concurrent controls on every plate. The follow-up (secondary) screen tested active chemical-pairs in concentration series, as well as a few additional assays not tested in the primary screen, some selected negative inactives, and several cases re-run in the concentration series for confirmatory purposes.

| SMILES | AC50 | outcome |
| --- | --- | --- |
| CCC[CH2][Sn]([Cl])([CH2]CCC)[CH2]CCC | active: 3.99 µM |  |
| CCN1CCC2(CC1)COc1cc3c(cc12)N(C(=O)c1ccc(-c2ccc(-c4nnc(C)o4)cc2C)cc1)CC3 |  | inactive |
| O=C(O)C(Cl)Cl | inconclusive: 25 µM |  |
| O=C(O)C1C(C(=O)O)C2(Cl)C(Cl)=C(Cl)C1(Cl)C2(Cl)Cl (centres undefined) |  | inactive |
| Cc1ccc(C(C)C)cc1 | inconclusive: 25 µM |  |
| Cc1cccc(C)c1O |  | inactive |
| CN(C)C(=O)Cl |  | inactive |
| CCCCCC(=O)O | inconclusive: 25 µM |  |
| C=CCC1=C(C)C(OC(=O)C2C(C=C(C)C)C2(C)C)CC1=O (centres undefined) |  | inactive |
| O=c1c(O)c(-c2ccc(O)c(O)c2)oc2cc(O)cc(O)c12 | inconclusive: 25 µM |  |
| C=C(C)C(=O)[O][Sn]([CH2]CCC)([CH2]CCC)[CH2]CCC | inconclusive: 25 µM |  |
| COS(C)(=O)=O |  | inactive |
| CC(C)=CCCC(C)=CC=O |  | inactive |
| COc1cccc([C@H](O)C2CCN(CCc3ccc(F)cc3)CC2)c1OC | inconclusive: 25 µM |  |

Three structures already listed, sorted by molecular weight, smallest number first.

| SMILES | AC50 | outcome |
| --- | --- | --- |
| CC(C)=CCCC(C)=CC=O |  | inactive |
| O=c1c(O)c(-c2ccc(O)c(O)c2)oc2cc(O)cc(O)c12 | inconclusive: 25 µM |  |
| COc1cccc([C@H](O)C2CCN(CCc3ccc(F)cc3)CC2)c1OC | inconclusive: 25 µM |  |
